The values below come from the supplement of paper PMC6411743.

The chains behind the UniProt entries cited, without tags or fusion partners. Where a name states a change or a piece, a line headed by the entry shows the natural chain unless it says otherwise.
UniProt P13612, whole entry: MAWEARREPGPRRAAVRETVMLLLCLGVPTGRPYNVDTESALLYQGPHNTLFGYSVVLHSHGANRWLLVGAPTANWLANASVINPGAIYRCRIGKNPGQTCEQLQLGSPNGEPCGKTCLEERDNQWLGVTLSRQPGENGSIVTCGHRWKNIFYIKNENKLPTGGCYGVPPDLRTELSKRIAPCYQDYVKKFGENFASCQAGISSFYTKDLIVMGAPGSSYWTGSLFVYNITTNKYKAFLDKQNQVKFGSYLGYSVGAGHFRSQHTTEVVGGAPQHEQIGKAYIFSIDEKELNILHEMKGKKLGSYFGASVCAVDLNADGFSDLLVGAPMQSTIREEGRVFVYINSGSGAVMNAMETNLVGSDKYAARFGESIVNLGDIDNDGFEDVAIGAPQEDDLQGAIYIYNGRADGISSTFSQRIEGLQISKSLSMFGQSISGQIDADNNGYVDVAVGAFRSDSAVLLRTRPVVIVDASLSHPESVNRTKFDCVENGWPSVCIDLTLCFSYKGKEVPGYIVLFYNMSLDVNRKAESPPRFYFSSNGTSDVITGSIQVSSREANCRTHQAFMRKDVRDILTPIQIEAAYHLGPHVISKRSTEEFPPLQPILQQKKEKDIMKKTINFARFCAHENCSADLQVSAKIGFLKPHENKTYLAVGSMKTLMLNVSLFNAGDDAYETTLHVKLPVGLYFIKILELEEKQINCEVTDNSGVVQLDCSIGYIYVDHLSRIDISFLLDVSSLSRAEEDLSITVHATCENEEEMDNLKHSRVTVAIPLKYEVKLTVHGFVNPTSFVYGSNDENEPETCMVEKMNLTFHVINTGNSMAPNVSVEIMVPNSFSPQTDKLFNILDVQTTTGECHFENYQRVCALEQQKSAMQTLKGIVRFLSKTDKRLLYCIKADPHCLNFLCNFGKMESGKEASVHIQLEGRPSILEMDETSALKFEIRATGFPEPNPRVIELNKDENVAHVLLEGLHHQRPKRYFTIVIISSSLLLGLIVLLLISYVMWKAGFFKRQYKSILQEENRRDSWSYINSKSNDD
UniProt P13598: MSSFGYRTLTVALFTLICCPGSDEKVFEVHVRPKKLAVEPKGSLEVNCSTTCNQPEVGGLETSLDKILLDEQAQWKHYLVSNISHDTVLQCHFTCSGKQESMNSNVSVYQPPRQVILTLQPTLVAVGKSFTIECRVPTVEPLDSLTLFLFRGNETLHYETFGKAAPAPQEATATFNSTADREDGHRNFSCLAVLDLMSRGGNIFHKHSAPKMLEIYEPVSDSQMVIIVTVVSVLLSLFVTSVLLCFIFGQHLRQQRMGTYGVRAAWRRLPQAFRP
UniProt P23919: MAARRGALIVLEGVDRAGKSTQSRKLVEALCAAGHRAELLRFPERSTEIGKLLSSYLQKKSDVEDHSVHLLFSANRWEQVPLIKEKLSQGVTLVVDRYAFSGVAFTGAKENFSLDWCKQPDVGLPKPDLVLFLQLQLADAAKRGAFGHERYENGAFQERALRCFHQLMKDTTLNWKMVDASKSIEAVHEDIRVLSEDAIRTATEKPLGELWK
UniProt P25490, whole entry: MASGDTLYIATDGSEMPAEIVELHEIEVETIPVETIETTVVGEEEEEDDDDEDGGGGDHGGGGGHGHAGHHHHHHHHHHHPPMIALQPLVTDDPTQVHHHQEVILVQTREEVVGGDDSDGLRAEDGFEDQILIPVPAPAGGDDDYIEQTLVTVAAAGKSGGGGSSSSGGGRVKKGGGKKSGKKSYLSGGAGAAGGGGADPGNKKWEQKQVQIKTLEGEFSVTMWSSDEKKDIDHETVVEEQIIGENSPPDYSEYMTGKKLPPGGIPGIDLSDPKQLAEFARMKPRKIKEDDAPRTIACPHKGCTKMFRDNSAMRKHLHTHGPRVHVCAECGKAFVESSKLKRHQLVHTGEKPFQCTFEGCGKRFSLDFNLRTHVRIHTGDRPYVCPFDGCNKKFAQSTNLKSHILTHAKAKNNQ
UniProt P24666: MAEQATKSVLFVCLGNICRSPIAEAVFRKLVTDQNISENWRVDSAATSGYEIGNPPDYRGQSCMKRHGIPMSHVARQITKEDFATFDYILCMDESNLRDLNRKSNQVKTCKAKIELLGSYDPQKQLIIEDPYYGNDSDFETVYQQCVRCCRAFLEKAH
UniProt P11441: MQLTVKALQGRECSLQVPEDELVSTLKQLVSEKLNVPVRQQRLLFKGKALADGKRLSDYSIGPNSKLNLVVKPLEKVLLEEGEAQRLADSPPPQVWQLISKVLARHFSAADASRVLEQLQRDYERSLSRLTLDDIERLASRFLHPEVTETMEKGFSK
UniProt P19367: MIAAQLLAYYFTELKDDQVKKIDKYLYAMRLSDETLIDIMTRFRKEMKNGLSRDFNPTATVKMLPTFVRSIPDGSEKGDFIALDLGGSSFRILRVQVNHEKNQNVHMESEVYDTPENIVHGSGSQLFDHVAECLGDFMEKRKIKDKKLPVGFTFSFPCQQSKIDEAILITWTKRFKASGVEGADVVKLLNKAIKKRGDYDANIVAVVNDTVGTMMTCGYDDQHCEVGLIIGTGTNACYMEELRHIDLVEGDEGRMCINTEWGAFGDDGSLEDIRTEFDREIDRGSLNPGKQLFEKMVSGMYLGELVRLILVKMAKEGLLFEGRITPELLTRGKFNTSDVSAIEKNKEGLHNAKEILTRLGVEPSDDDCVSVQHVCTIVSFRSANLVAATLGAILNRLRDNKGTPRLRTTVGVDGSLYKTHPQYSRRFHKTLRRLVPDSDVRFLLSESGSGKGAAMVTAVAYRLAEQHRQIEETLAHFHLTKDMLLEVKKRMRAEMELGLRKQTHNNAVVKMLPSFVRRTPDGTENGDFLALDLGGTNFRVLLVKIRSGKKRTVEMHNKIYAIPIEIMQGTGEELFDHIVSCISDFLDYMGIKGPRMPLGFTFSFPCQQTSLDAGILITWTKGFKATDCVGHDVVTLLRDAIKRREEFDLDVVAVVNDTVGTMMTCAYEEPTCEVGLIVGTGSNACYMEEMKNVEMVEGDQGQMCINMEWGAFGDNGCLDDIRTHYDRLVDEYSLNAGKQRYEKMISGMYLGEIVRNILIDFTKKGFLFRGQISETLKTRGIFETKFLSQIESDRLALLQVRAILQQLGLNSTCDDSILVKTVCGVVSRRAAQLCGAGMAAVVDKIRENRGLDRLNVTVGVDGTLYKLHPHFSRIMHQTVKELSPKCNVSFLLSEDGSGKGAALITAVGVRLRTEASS
UniProt P17812: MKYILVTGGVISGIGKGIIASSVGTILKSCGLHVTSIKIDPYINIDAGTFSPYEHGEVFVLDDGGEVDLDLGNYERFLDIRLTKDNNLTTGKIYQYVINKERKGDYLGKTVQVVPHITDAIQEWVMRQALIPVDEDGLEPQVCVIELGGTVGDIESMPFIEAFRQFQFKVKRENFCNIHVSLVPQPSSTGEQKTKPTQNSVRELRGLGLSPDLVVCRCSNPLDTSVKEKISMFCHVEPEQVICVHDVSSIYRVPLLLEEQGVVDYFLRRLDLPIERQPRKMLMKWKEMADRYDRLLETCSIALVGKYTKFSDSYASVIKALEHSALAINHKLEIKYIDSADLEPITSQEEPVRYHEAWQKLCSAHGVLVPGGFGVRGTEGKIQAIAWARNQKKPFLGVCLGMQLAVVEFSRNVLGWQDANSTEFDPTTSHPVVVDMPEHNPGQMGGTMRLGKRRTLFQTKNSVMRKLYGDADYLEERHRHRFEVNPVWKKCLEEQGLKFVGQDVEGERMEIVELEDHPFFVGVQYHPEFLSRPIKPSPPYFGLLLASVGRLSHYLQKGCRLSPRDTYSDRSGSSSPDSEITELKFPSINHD
UniProt P20700: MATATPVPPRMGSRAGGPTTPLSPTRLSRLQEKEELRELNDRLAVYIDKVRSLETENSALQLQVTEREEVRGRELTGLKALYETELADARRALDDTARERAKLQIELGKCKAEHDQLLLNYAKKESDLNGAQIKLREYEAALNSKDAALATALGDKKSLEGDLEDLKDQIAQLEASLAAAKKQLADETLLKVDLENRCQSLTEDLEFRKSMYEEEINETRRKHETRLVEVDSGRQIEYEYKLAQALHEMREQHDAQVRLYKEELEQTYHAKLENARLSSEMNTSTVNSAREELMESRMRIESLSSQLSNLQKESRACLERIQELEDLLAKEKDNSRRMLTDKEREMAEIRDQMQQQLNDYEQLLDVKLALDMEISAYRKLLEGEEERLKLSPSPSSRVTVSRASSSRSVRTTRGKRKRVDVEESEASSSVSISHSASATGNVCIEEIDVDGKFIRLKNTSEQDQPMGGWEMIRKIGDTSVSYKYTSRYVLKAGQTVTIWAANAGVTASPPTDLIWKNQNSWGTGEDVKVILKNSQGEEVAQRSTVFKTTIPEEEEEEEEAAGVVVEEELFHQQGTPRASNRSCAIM
UniProt P16278: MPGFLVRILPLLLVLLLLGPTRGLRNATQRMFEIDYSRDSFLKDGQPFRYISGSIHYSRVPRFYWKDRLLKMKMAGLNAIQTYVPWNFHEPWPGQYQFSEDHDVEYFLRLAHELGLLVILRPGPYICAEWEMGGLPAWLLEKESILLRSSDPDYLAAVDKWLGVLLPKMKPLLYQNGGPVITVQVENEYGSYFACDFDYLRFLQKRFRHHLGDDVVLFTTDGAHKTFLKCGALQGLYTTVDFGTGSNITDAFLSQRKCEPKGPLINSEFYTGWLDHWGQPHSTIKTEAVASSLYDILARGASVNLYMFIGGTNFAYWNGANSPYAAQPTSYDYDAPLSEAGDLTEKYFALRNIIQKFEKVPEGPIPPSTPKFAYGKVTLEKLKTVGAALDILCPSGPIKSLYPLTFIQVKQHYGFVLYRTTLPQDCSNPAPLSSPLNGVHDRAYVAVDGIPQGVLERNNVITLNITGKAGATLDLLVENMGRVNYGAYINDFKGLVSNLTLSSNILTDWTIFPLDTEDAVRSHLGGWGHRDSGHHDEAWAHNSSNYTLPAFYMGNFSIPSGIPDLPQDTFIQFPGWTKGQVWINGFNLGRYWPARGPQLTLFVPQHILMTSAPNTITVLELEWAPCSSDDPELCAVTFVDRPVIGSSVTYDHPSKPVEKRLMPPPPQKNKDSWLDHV
UniProt P26639: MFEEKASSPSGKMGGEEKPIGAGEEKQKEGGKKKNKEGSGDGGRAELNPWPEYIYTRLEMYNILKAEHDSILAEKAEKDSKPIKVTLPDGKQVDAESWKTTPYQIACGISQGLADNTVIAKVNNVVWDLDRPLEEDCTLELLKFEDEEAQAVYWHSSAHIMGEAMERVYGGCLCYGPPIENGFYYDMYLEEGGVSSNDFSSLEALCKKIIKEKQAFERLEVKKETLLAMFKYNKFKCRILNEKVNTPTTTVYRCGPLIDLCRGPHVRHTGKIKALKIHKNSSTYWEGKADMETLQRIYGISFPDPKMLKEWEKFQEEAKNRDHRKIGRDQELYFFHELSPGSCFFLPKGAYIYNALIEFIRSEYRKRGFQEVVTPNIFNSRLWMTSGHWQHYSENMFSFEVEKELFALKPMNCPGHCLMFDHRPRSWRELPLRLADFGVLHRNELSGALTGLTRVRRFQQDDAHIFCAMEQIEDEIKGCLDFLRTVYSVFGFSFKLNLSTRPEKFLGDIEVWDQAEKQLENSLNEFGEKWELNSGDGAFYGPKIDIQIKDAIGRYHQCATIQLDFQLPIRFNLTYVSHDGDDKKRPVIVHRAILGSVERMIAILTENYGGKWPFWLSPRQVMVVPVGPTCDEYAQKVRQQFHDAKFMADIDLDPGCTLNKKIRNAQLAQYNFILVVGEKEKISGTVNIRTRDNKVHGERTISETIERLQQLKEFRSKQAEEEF
UniProt P14927: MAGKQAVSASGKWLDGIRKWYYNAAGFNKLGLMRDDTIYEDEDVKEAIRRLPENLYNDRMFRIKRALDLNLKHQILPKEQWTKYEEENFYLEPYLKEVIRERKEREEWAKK

± gives the standard deviation of the averaged measurements. This is one part of the list.

Compound in this assay: Nc1nc2c(ncn2[C@@H]2O[C@H](COP(=O)(O)OP(=O)(O)OP(=O)(O)O)[C@@H](O)[C@H]2O)c(=O)[nH]1 [guanosine triphosphate]
Put plainly: NP40-soluble protein abundance relative to vehicle (solubility fold change) (ratio); higher = more soluble protein in presence of GTP. Put shortly: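 Eight concentrations, 0.1 to 10 mM, were tested on Jurkat crude lysate for 10 min at room temperature and then 3 min at 37 °C, in three independent experiments. The lysate was solubilised with 0.8% NP40 and benzonase, ultracentrifuged, and the supernatant TMT-labelled for LC-MS/MS. Each value is the fold change against the detergent-processed vehicle in its own replicate, from vsn-normalised intensities.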

Turning to ITGA4 (UniProt P13612), the NP40-soluble protein abundance runs as follows: (concentration: 0.1mM) 0.943 ± 0.059; (concentration: 0.5mM) 0.939 ± 0.059; (concentration: 1mM) 0.943 ± 0.051; (concentration: 2mM) 0.941 ± 0.073; (concentration: 4mM) 0.928 ± 0.073; (concentration: 6mM) 0.933 ± 0.051. The NP40-soluble protein abundance came out at 0.922 ± 0.048 (concentration: 8mM) and 0.948 ± 0.1 (concentration: 10mM).
ICAM2 (UniProt P13598): the NP40-soluble protein abundance was determined as 0.85 ± 0.077 (concentration: 0.1mM); 0.861 ± 0.1 (concentration: 0.5mM); 0.937 ± 0.1 (concentration: 1mM); 0.854 ± 0.11 (concentration: 2mM); 0.849 ± 0.12 (concentration: 4mM); 0.879 ± 0.13 (concentration: 6mM). Besides, the NP40-soluble protein abundance runs as follows: (concentration: 8mM) 0.839 ± 0.11; (concentration: 10mM) 0.9 ± 0.098.
Turning to DTYMK (UniProt P23919), the NP40-soluble protein abundance is, setting by setting: (concentration: 0.1mM) 0.9789 ± 0.008; (concentration: 0.5mM) 0.961 ± 0.022; (concentration: 1mM) 0.9 ± 0.036; (concentration: 2mM) 0.889 ± 0.01; (concentration: 4mM) 0.865 ± 0.037; (concentration: 6mM) 0.86 ± 0.024. For the same target, the NP40-soluble protein abundance is 0.834 ± 0.057 (concentration: 8mM) and 0.817 ± 0.048 (concentration: 10mM).
YY1 (UniProt P25490): the NP40-soluble protein abundance runs as follows: (concentration: 0.1mM) 0.999 ± 0.045; (concentration: 0.5mM) 1.01 ± 0.045; (concentration: 1mM) 0.961 ± 0.068; (concentration: 2mM) 0.967 ± 0.081; (concentration: 4mM) 0.971 ± 0.081; (concentration: 6mM) 0.944 ± 0.074. Also, the NP40-soluble protein abundance was 1.01 ± 0.063 (concentration: 8mM) and 1.03 ± 0.081 (concentration: 10mM).
Turning to UniProt P24666 and related entries, the NP40-soluble protein abundance (concentration: 0.1mM) worked out at 0.894 ± 0.1; the NP40-soluble protein abundance (concentration: 0.5mM) amounted to 0.829 ± 0.063; the NP40-soluble protein abundance (concentration: 1mM) came out at 0.853 ± 0.1; the NP40-soluble protein abundance (concentration: 2mM) was determined as 0.84 ± 0.097; the NP40-soluble protein abundance (concentration: 4mM) amounted to 0.824 ± 0.083; the NP40-soluble protein abundance (concentration: 6mM) was determined as 0.802 ± 0.067. Moreover, the NP40-soluble protein abundance turned out to be 0.813 ± 0.1 (concentration: 8mM) and 0.841 ± 0.092 (concentration: 10mM).
For the target UBL4A (UniProt P11441), the NP40-soluble protein abundance reads like this: (concentration: 0.1mM) 0.881 ± 0.072; (concentration: 0.5mM) 0.855 ± 0.082; (concentration: 1mM) 1.02 ± 0.13; (concentration: 2mM) 1.08 ± 0.1; (concentration: 4mM) 1.06 ± 0.13; (concentration: 6mM) 1.06 ± 0.091. Also, the NP40-soluble protein abundance (concentration: 8mM) amounted to 1.02 ± 0.091 and the NP40-soluble protein abundance (concentration: 10mM) is 1.11 ± 0.15.
As to UniProt P22681 and related entries, the NP40-soluble protein abundance runs as follows: (concentration: 0.1mM) 1.012 ± 0.0049; (concentration: 0.5mM) 1.01 ± 0.039; (concentration: 1mM) 0.973 ± 0.027; (concentration: 2mM) 0.971 ± 0.014; (concentration: 4mM) 0.94 ± 0.019; (concentration: 6mM) 0.935 ± 0.01. The NP40-soluble protein abundance by setting is: (concentration: 8mM) 0.942 ± 0.032; (concentration: 10mM) 0.934 ± 0.02.
As for UniProt P19367 and related entries, the NP40-soluble protein abundance reads like this: (concentration: 0.1mM) 1.04 ± 0.04; (concentration: 0.5mM) 1.03 ± 0.07; (concentration: 1mM) 0.924 ± 0.012; (concentration: 2mM) 0.935 ± 0.06; (concentration: 4mM) 0.922 ± 0.037; (concentration: 6mM) 0.893 ± 0.04. Moreover, the NP40-soluble protein abundance turned out to be 0.869 ± 0.029 (concentration: 8mM) and 0.854 ± 0.064 (concentration: 10mM).
As for UniProt P22694 and related entries, the NP40-soluble protein abundance runs as follows: (concentration: 0.1mM) 1.09 ± 0.11; (concentration: 0.5mM) 1.1 ± 0.14; (concentration: 1mM) 0.937 ± 0.089; (concentration: 2mM) 1.05 ± 0.15; (concentration: 4mM) 0.984 ± 0.11; (concentration: 6mM) 1.02 ± 0.12. Moreover, the NP40-soluble protein abundance is, setting by setting: (concentration: 8mM) 0.916 ± 0.068; (concentration: 10mM) 0.974 ± 0.11.
Turning to UniProt P17812, the NP40-soluble protein abundance runs as follows: (concentration: 0.1mM) 1.04 ± 0.085; (concentration: 0.5mM) 1.03 ± 0.089; (concentration: 1mM) 0.924 ± 0.05; (concentration: 2mM) 0.916 ± 0.096; (concentration: 4mM) 0.904 ± 0.077; (concentration: 6mM) 0.883 ± 0.076. For the same target, the NP40-soluble protein abundance runs as follows: (concentration: 8mM) 0.864 ± 0.041; (concentration: 10mM) 0.819 ± 0.086.
Regarding LMNB1 (UniProt P20700), the NP40-soluble protein abundance runs as follows: (concentration: 0.1mM) 0.906 ± 0.079; (concentration: 0.5mM) 0.954 ± 0.075; (concentration: 1mM) 0.935 ± 0.069; (concentration: 2mM) 0.871 ± 0.086; (concentration: 4mM) 0.827 ± 0.059; (concentration: 6mM) 0.845 ± 0.069. For the same target, the NP40-soluble protein abundance (concentration: 8mM) is 0.849 ± 0.032 and the NP40-soluble protein abundance (concentration: 10mM) worked out at 0.836 ± 0.054.
Regarding UniProt P16278 and related entries, the NP40-soluble protein abundance runs as follows: (concentration: 0.1mM) 1.07 ± 0.032; (concentration: 0.5mM) 1.06 ± 0.065; (concentration: 1mM) 1.03 ± 0.026; (concentration: 2mM) 1.04 ± 0.064; (concentration: 4mM) 1.04 ± 0.059; (concentration: 6mM) 0.998 ± 0.085. For the same target, the NP40-soluble protein abundance (concentration: 8mM) stood at 0.984 ± 0.07 and the NP40-soluble protein abundance (concentration: 10mM) worked out at 1.01 ± 0.06.
Turning to UniProt P26639, the NP40-soluble protein abundance is, setting by setting: (concentration: 0.1mM) 1.02 ± 0.028; (concentration: 0.5mM) 1.02 ± 0.044; (concentration: 1mM) 0.944 ± 0.016; (concentration: 2mM) 0.953 ± 0.053; (concentration: 4mM) 0.959 ± 0.035; (concentration: 6mM) 0.925 ± 0.033. Also, the NP40-soluble protein abundance reads like this: (concentration: 8mM) 0.908 ± 0.012; (concentration: 10mM) 0.885 ± 0.036.
As to UQCRB (UniProt P14927), the NP40-soluble protein abundance (concentration: 0.1mM) is 0.986 ± 0.084; the NP40-soluble protein abundance (concentration: 0.5mM) stood at 0.94 ± 0.019; the NP40-soluble protein abundance (concentration: 1mM) stood at 1.04 ± 0.08; the NP40-soluble protein abundance (concentration: 2mM) came out at 0.994 ± 0.063; the NP40-soluble protein abundance (concentration: 4mM) turned out to be 0.962 ± 0.086; the NP40-soluble protein abundance (concentration: 6mM) was found to be 0.971 ± 0.038. The NP40-soluble protein abundance is, setting by setting: (concentration: 8mM) 0.99 ± 0.04; (concentration: 10mM) 1.01 ± 0.076.
Consider NCK1 (UniProt P16333), for which the NP40-soluble protein abundance by setting is: (concentration: 0.1mM) 1.01 ± 0.03; (concentration: 0.5mM) 0.993 ± 0.032; (concentration: 1mM) 0.965 ± 0.026; (concentration: 2mM) 0.94 ± 0.022; (concentration: 4mM) 0.942 ± 0.037; (concentration: 6mM) 0.928 ± 0.031. Moreover, the NP40-soluble protein abundance (concentration: 8mM) came out at 0.925 ± 0.033 and the NP40-soluble protein abundance (concentration: 10mM) was 0.879 ± 0.049.
